Over roughly 33,000 sequences, “E-score (-0.5 to 0.5)” has its median near -0.015; the highest 2% begin near 0.3. Some of the results follow.
target: T1, Abf1 (UniProt P14164); test: PBM E-score (8-mer binding enrichment) (E-score (-0.5 to 0.5)); higher = stronger / more preferred TF binding; conditions: protein concentration: 200 nM; construct: GST-full length
T1 sequence: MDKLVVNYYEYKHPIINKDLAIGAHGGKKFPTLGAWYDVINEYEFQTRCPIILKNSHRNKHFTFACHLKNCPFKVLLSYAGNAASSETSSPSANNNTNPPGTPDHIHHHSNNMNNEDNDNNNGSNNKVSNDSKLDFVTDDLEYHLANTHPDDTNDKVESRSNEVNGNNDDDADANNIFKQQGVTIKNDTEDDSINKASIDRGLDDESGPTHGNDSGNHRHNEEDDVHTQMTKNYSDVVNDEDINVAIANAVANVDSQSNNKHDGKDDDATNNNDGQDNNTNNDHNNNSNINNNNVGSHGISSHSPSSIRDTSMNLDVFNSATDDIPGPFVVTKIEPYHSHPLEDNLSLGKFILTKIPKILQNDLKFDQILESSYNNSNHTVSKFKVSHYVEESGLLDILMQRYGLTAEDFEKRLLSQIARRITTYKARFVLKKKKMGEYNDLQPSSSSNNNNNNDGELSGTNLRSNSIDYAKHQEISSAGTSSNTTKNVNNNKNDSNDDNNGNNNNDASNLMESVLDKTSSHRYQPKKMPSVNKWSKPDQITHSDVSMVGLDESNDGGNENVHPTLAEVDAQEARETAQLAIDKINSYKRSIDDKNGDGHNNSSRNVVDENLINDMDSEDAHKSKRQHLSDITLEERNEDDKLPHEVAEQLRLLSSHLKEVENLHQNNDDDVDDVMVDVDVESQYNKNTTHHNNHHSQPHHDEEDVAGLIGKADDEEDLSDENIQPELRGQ
Experimental: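 Universal 'all 10-mer' protein binding microarrays (Agilent AMADID 015681) probed with GST-tagged S. cerevisiae TFs (full-length or DBD) made by in vitro transcription/translation (PURExpress), about 100-200 nM. Bound TF was detected with fluorescent anti-GST. Each ungapped 8-mer (which stands for itself and its reverse complement) is scored by the PBM enrichment score (E-score), a modified Wilcoxon-Mann-Whitney statistic from -0.5 to +0.5, computed with the Universal PBM Analysis Suite. Scale: above 0.35 generally sequence-specific binding.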

Sequence | PBM E-score
CGAGCTAG | 0.0588
CGTTTAAC | 0.254
ACTAAACT | 0.0386
AATTGGCT | -0.0373
ACCCGTTC | 0.188
AAGCCACC | -0.214
CCTGAGAG | -0.352
CCCAACGG | -0.0471
AACCGCAT | 0.0846
ATCGCGAC | 0.206
AGTTCGCA | 0.0692
CGAAGGCG | -0.0596
GTGTCATA | 0.119
ATCTAACC | -0.0913
AGAGGACA | -0.132
CGAAAGGC | 0.106
GCGGCAGA | -0.0956
GACAGGCC | -0.0723
CTACTGTA | -0.201
TGGTCTAA | -0.185
CCCTACCA | 0.0127
AAAATTGA | 0.0528
AGTTTGCC | -0.0674
ATAGTTAA | 0.147
CGCCGGTC | -0.16

5 records drawn at random from the list so far:
Sequence | PBM E-score
ACTAAACT | 0.0386
AGTTCGCA | 0.0692
TGGTCTAA | -0.185
CCCTACCA | 0.0127
ATCGCGAC | 0.206

Additional entries

Sequence | PBM E-score
CCGAGCCC | -0.301
CGAAGCGC | -0.101
TACTCTCA | -0.144
GACAGCTC | -0.0862
GAAAGGAC | 0.0143
GTTGAGCA | -0.0847
GATTGTGA | 0.107
CCCAACCC | -0.21
CAGAACTA | -0.262
ACGCCACT | -0.224
TAAGCGGA | -0.127
CGTTAGCC | 0.0294
ATCCAATA | 0.131
AGCTACCG | -0.0848
AGTGTACG | 0.146
AAATAGGA | 0.12
AGAGGGTA | 0.0332
AACTGCTG | -0.0316
CGCAGCCG | -0.0971
CCGTTCTC | 0.217
CGCTCAAA | -0.142
CACTGACG | 0.0211
GATAATTA | 0.217
CCCCGGAG | -0.257
GTCACAAA | 0.103

Sequence | PBM E-score
AATTCTCT | -0.0531
AAGGCGCT | -0.0643
CGCTGCAA | 0.145
CAGTTTGA | -0.0226
ACACCTGT | -0.122
GCCGCTCC | -0.195
TATAAACA | -0.0416
CGCTGACG | -0.0675
TATGTGCA | -0.183
GTACCCTA | -0.0203
AACGTCTT | 0.169
GCATCAGA | 0.172
ACGAAACA | 0.245
AAATTAAA | 0.193
ACTGGCCA | -0.0393
GTCTCCGA | -0.223
AATCTGCC | -0.127
GTCTGCCA | 0.136
AACAACCT | -0.124
AACACGTC | 0.0164
AGGGTATC | -0.0493
ACACTCTC | -0.0865
AGCGAAAC | 0.0988
GCATCTCC | -0.255
GGTAGAAA | -0.119

Sequence | PBM E-score
CGCCAACC | -0.238
AGATATAT | 0.187
CCGCCACA | -0.165
CTTTTTCC | -0.034
CCCAAACA | -0.0787
CGCGATTA | 0.0309
AATATCGC | 0.283
ATTGATCA | 0.267
AGTGACCC | 0.11
GATTTCGC | 0.183
CCACGCGC | -0.206
GCGTGTAC | 0.159
CCGTTGTA | 0.173
GAGTTTCA | -0.0136
CTCTAAAA | -0.0732
CAAGTTAG | -0.0432
AGTACGTC | 0.125
AATACTTG | 0.168
ATAGATCG | 0.103
CACGCAGC | 0.00826
AGGTCAGC | -0.0373
CGCCTAAA | -0.0389
TATATCAA | 0.145
CCCATGCG | -0.239
AAGATTTA | 0.0898

Sequence | PBM E-score
GCAGCTAC | 0.0574
CGTTCTAA | 0.0735
AAGATGGG | -0.112
GGCTCCCA | -0.285
ATGGAGGG | -0.259
ATTGCCGC | 0.0308
CAACCACC | -0.0676
TCACCCAA | 0.14
GCCGTCGA | 0.176
ACCTGAAC | -0.323
GCTGATCC | -0.0141
AGTCCATG | -0.105
CGGTACAA | 0.211
AGAATAAC | -0.181
AAAATATC | 0.177
AGAAGCCT | 0.0484
AGGCTGGC | -0.215
CGGCCCGC | -0.121
CGGTAGAG | -0.0305
AGGCCTTG | -0.302
AAACAACG | 0.0689
GTGGATAA | 0.171
GAGGTCGA | -0.00154
CTAGCACC | -0.111
ACCTTCCC | -0.057

Taken from above:
In PBM E-score, ACTAAACT has the entry 0.0386
In PBM E-score, AGTCCATG has the entry -0.105
In PBM E-score, CCGCCACA has the entry -0.165

Further results

Sequence | PBM E-score
AGTTAAGA | 0.0808
CGCTGACC | -0.0675
AAGTTCAG | 0.0476
AAACGCAG | -0.117
AGCACTTG | -0.314
GACTGGTA | -0.1
ACGTTGGC | -0.00455
CGTATTGC | 0.106
GGCGACCC | -0.247
GACCATAC | -0.102
CGGGAATA | 0.141
AGCAGAAC | -0.0123
CTTGGACC | -0.191
GGGGTTAC | -0.261
ACTAGAGA | -0.107
CCGGTCTC | -0.28
AGCATGCG | -0.057
CGGGCGAC | -0.269
AGTCGTGA | 0.249
CTATGTGC | -0.0958
GGGGGTTA | -0.338
CGCCGTCC | 0.308
CCGGGATA | 0.0683
GTACCGGA | 0.0951
AGTACTCA | -0.0128

Sequence | PBM E-score
ACAATCCC | 0.00121
AAGTTGGT | 0.0992
CTACTATA | 0.0875
ACAAGGAA | 0.0968
GCGCGCAA | -0.0428
CAAGTGTA | -0.238
GAGGACAA | -0.0425
TACAACGA | 0.0333
CAATTTGA | 0.0493
CGGAGGTC | 0.133
CCCCGCGA | -0.0954
CCCTGACA | -0.0934
ATAGCCCA | 0.0251
ACTTCGCT | 0.0386
CATAGTTA | -0.037
ACACGCTG | -0.022
CGAAACCC | -0.00384
ATAAGCTC | 0.0741
AATCTATG | 0.135
CCAGCTGC | -0.335
GATTTGAC | 0.0926
CTGTCGGC | -0.0834

— the supplement of paper PMC3334620
